Literature values as cited in US6525089B1, “Pharmaceutical composition containing decursin” (Binex Co., Ltd., priority 1998, dated 2003).
For at least one compound, name, drawing or mass did not settle the structure.

Test system: APL patients
Settings: cited from earlier work
[1] = APL, medical institutions in the United States, France, Japan

For `CC1=C(/C=C/C(C)=C/C=C/C(C)=C/C(=O)O)C(C)(C)CCC1` [retinoic acid], the average remission rate [1] is given as “more than 80%”, the average remission time [1] is given as 29 days and the “patients in complete remission” value (large dose of retinoic acid, 22 APL patients) is given as 96%.
